In article PMC5725494, “Cell cycle-dependent phosphorylation regulates RECQL4 pathway choice and ubiquitination in DNA double-strand break repair”:
These are yes or no findings as the source states them, for the method shown. In cells and extracts the contact can be indirect. Some binding calls cover weakened binding; strength is not graded here. For part of these data: Tags and fused reporters may be left off the sequences shown. Blank lines part the entries; values can stand above or below the molecule they belong to.

Amino acid sequences for entries named in this document (tags omitted).
UniProt Q13619: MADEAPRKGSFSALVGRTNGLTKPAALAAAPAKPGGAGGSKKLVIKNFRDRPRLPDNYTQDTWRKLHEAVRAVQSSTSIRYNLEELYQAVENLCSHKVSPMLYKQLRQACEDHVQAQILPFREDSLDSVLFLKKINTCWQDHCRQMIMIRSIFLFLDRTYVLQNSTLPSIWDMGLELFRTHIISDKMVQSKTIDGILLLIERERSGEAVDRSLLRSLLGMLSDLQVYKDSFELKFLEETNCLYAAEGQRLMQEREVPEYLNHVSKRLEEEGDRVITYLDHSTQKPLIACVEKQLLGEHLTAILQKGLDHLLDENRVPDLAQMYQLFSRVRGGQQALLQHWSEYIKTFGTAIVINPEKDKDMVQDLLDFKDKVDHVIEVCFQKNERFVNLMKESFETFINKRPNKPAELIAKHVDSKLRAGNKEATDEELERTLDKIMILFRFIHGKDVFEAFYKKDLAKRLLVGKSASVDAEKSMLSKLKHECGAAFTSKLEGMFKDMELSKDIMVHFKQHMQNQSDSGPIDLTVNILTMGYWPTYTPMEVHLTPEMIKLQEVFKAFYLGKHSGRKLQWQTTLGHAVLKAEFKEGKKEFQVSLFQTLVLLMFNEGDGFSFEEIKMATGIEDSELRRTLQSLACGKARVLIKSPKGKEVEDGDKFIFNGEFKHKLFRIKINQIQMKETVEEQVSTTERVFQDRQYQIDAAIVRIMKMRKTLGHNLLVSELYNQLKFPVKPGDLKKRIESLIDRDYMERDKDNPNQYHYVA

Assays:
[1] = target: T1, GFP-tagged RECQL4 (wild type) (human) (UniProt O94761); experiment: co-IP; GFP-TRAP beads on lysate (2 mg protein) of HEK293T cells expressing GFP-tagged RECQL4 or mutants, overnight at 4 °C; lysis buffer 2 (40 mM Tris-HCl pH 7.4, 100 mM NaCl, 2 mM MgCl2, 0.2% NP-40, 0.3% Triton) with Benzonase; cells irradiated with 10 Gy; asynchronous, or synchronised in G1 with aphidicolin and released 10 h for S/G2; Western blotting
T1 sequence: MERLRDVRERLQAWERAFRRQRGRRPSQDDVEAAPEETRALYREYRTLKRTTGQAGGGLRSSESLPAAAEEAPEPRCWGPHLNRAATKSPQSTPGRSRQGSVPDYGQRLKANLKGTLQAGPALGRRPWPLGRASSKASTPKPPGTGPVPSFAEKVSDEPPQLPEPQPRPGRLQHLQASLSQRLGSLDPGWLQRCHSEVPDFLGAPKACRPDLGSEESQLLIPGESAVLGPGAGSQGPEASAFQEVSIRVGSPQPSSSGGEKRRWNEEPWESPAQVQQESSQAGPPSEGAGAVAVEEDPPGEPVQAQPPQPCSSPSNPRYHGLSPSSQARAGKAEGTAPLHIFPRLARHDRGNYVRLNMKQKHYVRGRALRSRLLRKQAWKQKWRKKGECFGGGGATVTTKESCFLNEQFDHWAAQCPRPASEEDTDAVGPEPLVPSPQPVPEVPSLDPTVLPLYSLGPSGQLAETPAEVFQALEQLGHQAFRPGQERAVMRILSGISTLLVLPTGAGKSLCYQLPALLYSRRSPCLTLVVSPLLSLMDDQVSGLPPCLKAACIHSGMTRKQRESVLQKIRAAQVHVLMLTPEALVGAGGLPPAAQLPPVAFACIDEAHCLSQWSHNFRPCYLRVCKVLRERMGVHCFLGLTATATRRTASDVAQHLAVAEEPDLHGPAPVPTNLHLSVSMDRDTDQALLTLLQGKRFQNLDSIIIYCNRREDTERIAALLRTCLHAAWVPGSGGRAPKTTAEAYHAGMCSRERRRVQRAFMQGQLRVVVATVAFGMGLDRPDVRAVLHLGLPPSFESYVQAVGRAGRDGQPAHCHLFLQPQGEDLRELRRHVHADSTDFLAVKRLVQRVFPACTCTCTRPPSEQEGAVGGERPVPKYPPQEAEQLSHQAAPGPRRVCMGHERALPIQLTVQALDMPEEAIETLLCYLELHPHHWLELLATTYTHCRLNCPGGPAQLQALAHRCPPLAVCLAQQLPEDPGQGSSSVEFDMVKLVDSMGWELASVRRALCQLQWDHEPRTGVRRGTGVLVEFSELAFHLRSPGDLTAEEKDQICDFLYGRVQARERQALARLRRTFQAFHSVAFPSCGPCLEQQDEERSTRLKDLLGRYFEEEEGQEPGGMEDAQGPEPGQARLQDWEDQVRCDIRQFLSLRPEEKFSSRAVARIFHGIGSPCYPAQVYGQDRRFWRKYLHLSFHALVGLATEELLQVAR

[2] = target: T2, 3×FLAG-tagged RECQL4 (wild type, full length) (human) (UniProt O94761); experiment: co-IP; M2 FLAG beads on lysate (2 mg protein) of HEK293T cells expressing 3×FLAG-tagged RECQL4, mutants or truncations, overnight at 4 °C; lysis buffer 2 with Benzonase; Western blotting of endogenous partners
T2 sequence: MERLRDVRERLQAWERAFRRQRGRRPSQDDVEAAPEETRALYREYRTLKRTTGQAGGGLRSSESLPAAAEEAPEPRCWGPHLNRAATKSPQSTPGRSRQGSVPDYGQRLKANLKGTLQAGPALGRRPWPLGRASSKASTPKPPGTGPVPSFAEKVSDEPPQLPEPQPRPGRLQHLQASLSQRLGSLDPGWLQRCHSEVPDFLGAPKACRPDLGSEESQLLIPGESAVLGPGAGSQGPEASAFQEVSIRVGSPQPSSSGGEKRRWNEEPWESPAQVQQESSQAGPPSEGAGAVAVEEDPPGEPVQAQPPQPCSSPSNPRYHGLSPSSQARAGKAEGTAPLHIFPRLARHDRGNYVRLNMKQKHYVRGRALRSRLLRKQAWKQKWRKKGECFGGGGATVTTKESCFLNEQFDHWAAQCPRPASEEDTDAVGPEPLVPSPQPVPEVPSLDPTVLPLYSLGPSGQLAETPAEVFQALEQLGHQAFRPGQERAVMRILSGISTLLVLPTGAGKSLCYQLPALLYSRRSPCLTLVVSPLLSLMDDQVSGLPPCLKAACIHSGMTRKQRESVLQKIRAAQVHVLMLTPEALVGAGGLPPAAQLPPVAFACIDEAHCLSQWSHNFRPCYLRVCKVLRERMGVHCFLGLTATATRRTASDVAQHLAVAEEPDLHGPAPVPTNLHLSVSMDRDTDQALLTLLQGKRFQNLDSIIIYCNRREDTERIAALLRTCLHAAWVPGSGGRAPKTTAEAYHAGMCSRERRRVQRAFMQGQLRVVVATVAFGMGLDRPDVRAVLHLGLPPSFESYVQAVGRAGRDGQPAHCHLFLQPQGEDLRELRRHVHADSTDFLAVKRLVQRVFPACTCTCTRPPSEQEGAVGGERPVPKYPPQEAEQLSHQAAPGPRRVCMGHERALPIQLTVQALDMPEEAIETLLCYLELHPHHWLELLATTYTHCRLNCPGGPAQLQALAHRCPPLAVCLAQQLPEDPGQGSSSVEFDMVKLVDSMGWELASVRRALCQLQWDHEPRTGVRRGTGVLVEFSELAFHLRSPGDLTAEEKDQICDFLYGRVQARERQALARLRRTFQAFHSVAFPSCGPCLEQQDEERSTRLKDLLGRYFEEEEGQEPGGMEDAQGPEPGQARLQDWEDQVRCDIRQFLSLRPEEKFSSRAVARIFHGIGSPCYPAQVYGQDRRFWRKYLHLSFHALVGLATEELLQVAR

[3] = target: T3, MRE11 (endogenous, U2OS) (human (endogenous in U2OS)) (UniProt P49959); experiment: co-IP; anti-MRE11 antibody or normal mouse IgG with protein A/G agarose on U2OS lysate (lysis buffer 2); cells pretreated with CDK1 and CDK2 inhibitors or DMSO, irradiated with 10 Gy, IP 5 min after irradiation
T3 sequence: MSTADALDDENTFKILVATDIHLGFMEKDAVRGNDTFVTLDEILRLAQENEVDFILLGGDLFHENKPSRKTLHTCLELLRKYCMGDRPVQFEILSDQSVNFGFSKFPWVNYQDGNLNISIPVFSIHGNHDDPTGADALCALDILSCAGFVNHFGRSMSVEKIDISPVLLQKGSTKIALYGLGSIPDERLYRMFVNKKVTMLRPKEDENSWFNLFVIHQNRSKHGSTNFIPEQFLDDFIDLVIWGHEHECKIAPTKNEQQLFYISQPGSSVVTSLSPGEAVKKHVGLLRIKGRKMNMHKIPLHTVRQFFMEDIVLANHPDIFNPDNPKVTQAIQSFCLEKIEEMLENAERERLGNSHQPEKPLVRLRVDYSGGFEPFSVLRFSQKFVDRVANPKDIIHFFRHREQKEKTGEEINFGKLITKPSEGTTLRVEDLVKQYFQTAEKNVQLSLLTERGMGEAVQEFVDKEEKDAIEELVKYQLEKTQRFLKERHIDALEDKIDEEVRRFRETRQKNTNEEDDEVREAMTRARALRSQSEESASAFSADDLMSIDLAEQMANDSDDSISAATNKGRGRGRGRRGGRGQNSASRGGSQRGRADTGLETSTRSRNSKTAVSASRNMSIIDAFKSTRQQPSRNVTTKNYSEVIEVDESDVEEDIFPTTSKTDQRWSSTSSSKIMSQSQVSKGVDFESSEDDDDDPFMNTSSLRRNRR

binding [1]: binds
Molecule: MRE11–RAD50–NBS1 complex (MRN) (from UniProt P49959 1-708; Q92878 1-1312; O60934 1-754)

binding [2]: binds
Molecule: CUL4A (from UniProt Q13619 1-759)

binding [3]: binds
B1: RECQL4 (endogenous, U2OS) (protein, UniProt O94761 1-1208)
chain: MERLRDVRERLQAWERAFRRQRGRRPSQDDVEAAPEETRALYREYRTLKRTTGQAGGGLRSSESLPAAAEEAPEPRCWGPHLNRAATKSPQSTPGRSRQGSVPDYGQRLKANLKGTLQAGPALGRRPWPLGRASSKASTPKPPGTGPVPSFAEKVSDEPPQLPEPQPRPGRLQHLQASLSQRLGSLDPGWLQRCHSEVPDFLGAPKACRPDLGSEESQLLIPGESAVLGPGAGSQGPEASAFQEVSIRVGSPQPSSSGGEKRRWNEEPWESPAQVQQESSQAGPPSEGAGAVAVEEDPPGEPVQAQPPQPCSSPSNPRYHGLSPSSQARAGKAEGTAPLHIFPRLARHDRGNYVRLNMKQKHYVRGRALRSRLLRKQAWKQKWRKKGECFGGGGATVTTKESCFLNEQFDHWAAQCPRPASEEDTDAVGPEPLVPSPQPVPEVPSLDPTVLPLYSLGPSGQLAETPAEVFQALEQLGHQAFRPGQERAVMRILSGISTLLVLPTGAGKSLCYQLPALLYSRRSPCLTLVVSPLLSLMDDQVSGLPPCLKAACIHSGMTRKQRESVLQKIRAAQVHVLMLTPEALVGAGGLPPAAQLPPVAFACIDEAHCLSQWSHNFRPCYLRVCKVLRERMGVHCFLGLTATATRRTASDVAQHLAVAEEPDLHGPAPVPTNLHLSVSMDRDTDQALLTLLQGKRFQNLDSIIIYCNRREDTERIAALLRTCLHAAWVPGSGGRAPKTTAEAYHAGMCSRERRRVQRAFMQGQLRVVVATVAFGMGLDRPDVRAVLHLGLPPSFESYVQAVGRAGRDGQPAHCHLFLQPQGEDLRELRRHVHADSTDFLAVKRLVQRVFPACTCTCTRPPSEQEGAVGGERPVPKYPPQEAEQLSHQAAPGPRRVCMGHERALPIQLTVQALDMPEEAIETLLCYLELHPHHWLELLATTYTHCRLNCPGGPAQLQALAHRCPPLAVCLAQQLPEDPGQGSSSVEFDMVKLVDSMGWELASVRRALCQLQWDHEPRTGVRRGTGVLVEFSELAFHLRSPGDLTAEEKDQICDFLYGRVQARERQALARLRRTFQAFHSVAFPSCGPCLEQQDEERSTRLKDLLGRYFEEEEGQEPGGMEDAQGPEPGQARLQDWEDQVRCDIRQFLSLRPEEKFSSRAVARIFHGIGSPCYPAQVYGQDRRFWRKYLHLSFHALVGLATEELLQVAR
